The source of these data is PMC8076227.

By UniProt entry, the sequences of proteins in these tests, tags left out. Where a name states a change or a piece, a line headed by the entry shows the natural chain unless it says otherwise. Chains listed by the source or under a name are the forms on record and can include a tag or linker.
UniProt Q06710: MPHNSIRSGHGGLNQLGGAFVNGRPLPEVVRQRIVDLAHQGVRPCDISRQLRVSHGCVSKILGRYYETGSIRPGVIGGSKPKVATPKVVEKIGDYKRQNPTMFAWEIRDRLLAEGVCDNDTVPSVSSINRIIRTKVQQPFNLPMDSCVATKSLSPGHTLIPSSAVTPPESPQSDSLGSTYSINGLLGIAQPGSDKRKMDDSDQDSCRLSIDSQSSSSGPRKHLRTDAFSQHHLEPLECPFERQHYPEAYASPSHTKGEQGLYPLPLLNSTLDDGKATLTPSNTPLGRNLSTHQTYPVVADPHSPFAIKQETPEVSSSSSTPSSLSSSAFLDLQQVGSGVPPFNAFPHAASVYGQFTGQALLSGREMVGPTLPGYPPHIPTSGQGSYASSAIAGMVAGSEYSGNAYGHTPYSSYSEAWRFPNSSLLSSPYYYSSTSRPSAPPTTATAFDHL
UniProt Q03112: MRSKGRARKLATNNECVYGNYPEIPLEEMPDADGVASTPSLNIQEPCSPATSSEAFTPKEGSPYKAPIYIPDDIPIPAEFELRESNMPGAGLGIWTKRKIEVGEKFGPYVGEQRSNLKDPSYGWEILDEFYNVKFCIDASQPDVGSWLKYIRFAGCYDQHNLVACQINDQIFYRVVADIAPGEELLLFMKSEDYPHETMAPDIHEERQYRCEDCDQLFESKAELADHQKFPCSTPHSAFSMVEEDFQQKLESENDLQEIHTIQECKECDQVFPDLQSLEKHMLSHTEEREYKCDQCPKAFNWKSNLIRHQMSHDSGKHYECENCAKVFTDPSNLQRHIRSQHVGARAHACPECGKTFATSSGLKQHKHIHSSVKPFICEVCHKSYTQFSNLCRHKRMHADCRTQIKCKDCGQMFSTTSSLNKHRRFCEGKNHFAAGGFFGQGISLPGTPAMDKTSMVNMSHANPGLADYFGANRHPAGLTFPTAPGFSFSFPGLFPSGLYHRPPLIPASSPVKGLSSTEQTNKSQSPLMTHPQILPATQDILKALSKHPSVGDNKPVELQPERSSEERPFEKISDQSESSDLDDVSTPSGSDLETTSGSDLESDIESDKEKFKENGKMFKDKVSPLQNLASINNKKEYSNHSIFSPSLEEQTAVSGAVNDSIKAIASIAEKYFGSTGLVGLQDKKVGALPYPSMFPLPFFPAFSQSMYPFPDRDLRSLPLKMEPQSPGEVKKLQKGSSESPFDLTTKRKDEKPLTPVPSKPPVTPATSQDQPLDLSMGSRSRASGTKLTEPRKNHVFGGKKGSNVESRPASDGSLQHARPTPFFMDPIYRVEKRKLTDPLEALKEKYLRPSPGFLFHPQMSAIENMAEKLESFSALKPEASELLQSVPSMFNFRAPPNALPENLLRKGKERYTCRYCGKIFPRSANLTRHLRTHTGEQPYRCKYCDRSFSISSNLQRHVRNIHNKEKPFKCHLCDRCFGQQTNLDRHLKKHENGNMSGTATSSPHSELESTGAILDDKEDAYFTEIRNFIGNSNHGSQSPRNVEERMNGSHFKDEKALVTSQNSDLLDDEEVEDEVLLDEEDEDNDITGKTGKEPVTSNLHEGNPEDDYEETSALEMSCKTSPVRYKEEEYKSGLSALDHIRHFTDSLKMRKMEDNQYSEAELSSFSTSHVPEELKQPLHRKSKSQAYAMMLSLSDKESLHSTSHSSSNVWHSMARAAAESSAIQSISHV
PRDM3 FL (Q03112-3, form named): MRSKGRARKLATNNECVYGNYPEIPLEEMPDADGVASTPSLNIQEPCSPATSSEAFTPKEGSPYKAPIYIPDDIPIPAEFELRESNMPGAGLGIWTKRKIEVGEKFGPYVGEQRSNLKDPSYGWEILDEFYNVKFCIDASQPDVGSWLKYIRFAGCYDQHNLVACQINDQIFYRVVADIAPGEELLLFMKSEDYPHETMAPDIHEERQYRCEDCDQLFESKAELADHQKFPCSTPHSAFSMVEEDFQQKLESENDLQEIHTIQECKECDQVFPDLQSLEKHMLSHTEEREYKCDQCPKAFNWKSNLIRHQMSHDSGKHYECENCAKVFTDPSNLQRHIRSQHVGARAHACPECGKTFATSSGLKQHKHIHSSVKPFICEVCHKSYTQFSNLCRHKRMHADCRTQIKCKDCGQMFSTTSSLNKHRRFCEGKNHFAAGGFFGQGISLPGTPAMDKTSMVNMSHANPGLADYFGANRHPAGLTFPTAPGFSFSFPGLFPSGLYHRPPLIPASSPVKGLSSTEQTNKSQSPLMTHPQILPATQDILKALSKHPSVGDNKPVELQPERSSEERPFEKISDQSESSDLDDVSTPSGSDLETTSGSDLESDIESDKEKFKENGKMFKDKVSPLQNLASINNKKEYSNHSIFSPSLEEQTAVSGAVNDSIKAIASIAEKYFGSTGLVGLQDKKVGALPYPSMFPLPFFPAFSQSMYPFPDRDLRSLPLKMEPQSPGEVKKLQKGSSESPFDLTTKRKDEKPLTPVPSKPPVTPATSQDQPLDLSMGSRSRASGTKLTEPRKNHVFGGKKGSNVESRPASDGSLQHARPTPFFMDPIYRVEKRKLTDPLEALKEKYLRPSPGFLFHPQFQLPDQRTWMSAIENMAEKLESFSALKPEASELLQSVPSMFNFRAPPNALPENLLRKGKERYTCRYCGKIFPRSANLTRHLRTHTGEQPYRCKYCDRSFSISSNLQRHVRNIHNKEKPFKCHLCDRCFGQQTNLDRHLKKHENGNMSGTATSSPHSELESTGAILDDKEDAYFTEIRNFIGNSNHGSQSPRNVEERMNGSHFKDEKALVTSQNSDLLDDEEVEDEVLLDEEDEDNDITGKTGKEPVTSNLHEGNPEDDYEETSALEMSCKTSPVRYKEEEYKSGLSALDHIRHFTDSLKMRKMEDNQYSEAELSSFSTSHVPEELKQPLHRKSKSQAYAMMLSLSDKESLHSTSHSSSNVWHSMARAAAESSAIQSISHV

No constants are given. Whether binding was seen depends on the method and setting. In cells and extracts the contact can be indirect. Some binding calls cover weakened binding; strength is not graded here.

In one experiment the target is HA-PAX8 FL (UniProt Q06710). The experiment in a line: co-IP; HEK293FT transfected with HA-PAX8 FL and PRDM3 FL, NP40 lysate (320 ug), magnetic HA beads overnight at 4 °C, Western blot. (In western blotting, separated proteins are transferred to a membrane and probed.)
Another experiment has as its target LgBiT-PAX8 FL (UniProt Q06710). The experiment in a line: split reporter; cellular NanoBit assay in transfected HEK293A cells, luminescence 48 h after transfection.
Another experiment deals with PAX8-LgBit (UniProt Q06710). The experiment in a line: split reporter; IVTT-NanoBit: PAX8-LgBit and mutants made in a mammalian in vitro transcription-translation system, mixed with PRDM3-SmBit (Fig. 2B).

As for PRDM3 FL (from UniProt Q03112-3 1-1239), the binding result in the experiment with HA-PAX8 FL is recorded as “binds”. Consider “PRDM3 FL-SmBiT (from UniProt Q03112 1-1230)”, for which the binding result with LgBiT-PAX8 FL is “binds”.

As for “PRDM3-SmBit (from UniProt Q03112 1-1230)”, the binding result in the experiment with PAX8-LgBit was “binds”.
